In the supplement of paper PMC4840960:
± gives the standard deviation of the averaged measurements. The list shows a part of the results. Plates or batches differ in their baseline, so values are only roughly comparable.

Tested on: E18 rat cortical neuron-glia co-culture
Assay: total nuclei (DAPI) / Olig2+ nuclei (ratio); higher = more depletion of OPC/OL lineage cells
Conditions: treatment time: 8 days (DIV5-DIV13)

| SMILES | total nuclei (1 µM) | total nuclei (5 µM) |
| --- | --- | --- |
| Cc1cccc(Nc2ccccc2C(=O)O)c1C [Mefenamic Acid] | 3.73 | 5.4 |
| O=C1N(c2ccccc2)c2ccccc2C1(Cc1ccncc1)Cc1ccncc1 [Linopirdine] | 2.66 | 2.8 |
| C[C@]12CCC(=O)C=C1CC[C@@H]1[C@@H]2CC[C@@]2(C)[C@H]1CC[C@]2(O)C(=O)CO [Cortodoxone] | 2.7 | 2.8 |
| Cc1cc(NS(=O)(=O)c2ccc(N)cc2)no1 [Sulfamethoxazole] | 2.9 | 2.9 |
| CCCCC[C@H](O)/C=C/[C@H]1[C@H](O)CC(=O)[C@@H]1CCCCCCC(=O)O [Alprostadil] | 4.18 | 37.3 |
| COC(=O)C1=C(C)NC(C)=C(C(=O)OC)C1c1ccccc1[N+](=O)[O-] [Nifedipine] | 4.01 | 7.7 |
| CN(C)CCCN1c2ccccc2Sc2ccc(Cl)cc21 [Chlorpromazine] | 2.89 | 5.3 |
| CC1=C(C/C=C(\C)CCC[C@H](C)CCC[C@H](C)CCCC(C)C)C(=O)c2ccccc2C1=O [Phylloquinone] | 2.69 | 2.8 |
| C[C@H](CCC(=O)O)[C@H]1CC[C@H]2[C@@H]3[C@H](O)C[C@@H]4C[C@H](O)CC[C@]4(C)[C@H]3CC[C@]12C [Chenodeoxycholic Acid] | 3.68 | 3.6 |
| O=c1c(O[C@@H]2O[C@H](CO)[C@@H](O)[C@H](O)[C@H]2O)c(-c2ccc(O)c(O)c2)oc2cc(O)cc(O)c12 [Isoquercitrin] | 3.49 | 3.4 |
| CC(C)(O)c1ccccc1CC[C@@H](SCC1(CC(=O)O)CC1)c1cccc(/C=C/c2ccc3ccc(Cl)cc3n2)c1 [Montelukast] | 3.17 | > 40 |
| Cc1cn([C@H]2C[C@H](N=[N+]=[N-])[C@@H](CO)O2)c(=O)[nH]c1=O [Zidovudine] | 2.67 | 2.8 |
| CCOC(=O)N1CCC(=C2c3ccc(Cl)cc3CCc3cccnc32)CC1 [Loratadine] | 3.87 | 4.3 |
| CCCCC(=O)N(Cc1ccc(-c2ccccc2-c2nnn[nH]2)cc1)[C@H](C(=O)O)C(C)C [Valsartan] | 2.7 | 2.6 |
| CNCCC=C1c2ccccc2CCc2ccccc21 [Nortriptyline] | 3.94 | 9.9 |
| CN1CCN(CC/C=C2/c3ccccc3Sc3ccc(S(=O)(=O)N(C)C)cc32)CC1 [Thiothixene] | 4.19 | 10.5 |
| CC(=O)OCC(=O)[C@@]12OC(C)(C)O[C@@H]1C[C@H]1[C@@H]3C[C@H](F)C4=CC(=O)C=C[C@]4(C)[C@@]3(F)[C@@H](O)C[C@@]12C [Fluocinonide] | 2.9 | 11.6 |
| CC1(C)S[C@@H]2[C@H](NC(=O)COc3ccccc3)C(=O)N2[C@H]1C(=O)O [Penicillin V] | 4.1 | 4.3 |
| Cc1cnc(NC(=O)C2=C(O)c3ccccc3S(=O)(=O)N2C)s1 [Meloxicam] | 3.97 | 4.1 |
| CO[C@@]1(NC(=O)Cc2cccs2)C(=O)N2C(C(=O)O)=C(COC(N)=O)CS[C@@H]21 [Cefoxitin] | 2.77 | 2.8 |
| C[C@H]1C[C@H]2[C@@H]3CCC4=CC(=O)C=C[C@]4(C)[C@@]3(Cl)[C@@H](O)C[C@]2(C)[C@@]1(O)C(=O)CO [Beclomethasone] | 2.73 ± 0.23 | 2.55 ± 0.49 |
| Nc1ncnc2c1ncn2[C@@H]1O[C@H](CO)[C@@H](O)[C@@H]1O [Vidarabine] | 3.1 | 8.7 |
| NS(=O)(=O)c1cc(C2(O)NC(=O)c3ccccc32)ccc1Cl (centres undefined) [Chlorthalidone] | 4.49 | 4.6 |
| CC1=Nc2ccc(Cl)cc2S(=O)(=O)N1 [Diazoxide] | 2.81 | 2.8 |
| NC(=O)c1cccnc1 [Niacinamide] | 2.67 | 2.8 |
| CN1CCC(=C2c3ccccc3CC(=O)c3sccc32)CC1 [Ketotifen] | 2.71 | 3.1 |
| CCOC(=O)[C@H](CCc1ccccc1)N[C@@H](C)C(=O)N1CCC[C@H]1C(=O)O [Enalapril] | 2.3 | 2.2 |

Single records, as listed above:
`Cc1cc(NS(=O)(=O)c2ccc(N)cc2)no1` [Sulfamethoxazole] in the list: total nuclei (1 µM): 2.9; total nuclei (5 µM): 2.9
`O=c1c(O[C@@H]2O[C@H](CO)[C@@H](O)[C@H](O)[C@H]2O)c(-c2ccc(O)c(O)c2)oc2cc(O)cc(O)c12` [Isoquercitrin] in the list: total nuclei (1 µM): 3.49; total nuclei (5 µM): 3.4
